These are yes or no findings as the source states them, for the method shown. In cells and extracts the contact can be indirect. A result given as binding can be weak or reduced; the word gives no strength. Where a sequence is shown, tags or fusion partners need not be part of it.

By UniProt entry, the sequences of proteins in these tests, tags left out. Where a name states a change or a piece, a line headed by the entry shows the natural chain unless it says otherwise.
UniProt Q9VAJ5: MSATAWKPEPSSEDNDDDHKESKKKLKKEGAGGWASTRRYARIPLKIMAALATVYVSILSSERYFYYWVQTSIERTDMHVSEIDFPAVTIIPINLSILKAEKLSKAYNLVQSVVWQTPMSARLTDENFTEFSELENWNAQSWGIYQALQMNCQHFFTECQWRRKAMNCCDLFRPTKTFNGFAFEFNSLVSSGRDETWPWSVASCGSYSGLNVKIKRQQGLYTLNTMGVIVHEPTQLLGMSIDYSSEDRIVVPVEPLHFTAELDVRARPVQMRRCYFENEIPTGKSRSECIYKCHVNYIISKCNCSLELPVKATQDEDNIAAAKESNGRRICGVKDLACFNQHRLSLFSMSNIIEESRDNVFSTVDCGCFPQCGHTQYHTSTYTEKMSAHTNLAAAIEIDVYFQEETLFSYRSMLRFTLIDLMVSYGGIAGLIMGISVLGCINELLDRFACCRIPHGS

The text below walks through data of PMC9626565.

In the assay the target is Ppk30 fused to the C-terminal fragment of GFP (ppk30-GFP-C) (Drosophila) (UniProt Q9VAJ5). Briefly: split reporter; fragment complementary assay (FCA) with N- and C-terminal fragments of Kusabira Green (CoralHue Fluo-chase Kit); vectors co-transfected into HEK293T cells, 48 h; fluorescence by confocal microscopy and fluorescence spectrophotometer, normalised to beta-gal activity.

B1: Ppk19 fused to the N-terminal fragment of GFP (ppk19-GFP-N) (protein, UniProt Q9VAJ3 1-511)
chain: MLLYTKELVIPRPRPGLLRFRNNPRGIKFREKLCNSFAHSNIHGMQHVFGEQHLWQRCLWLAIVLGAVITGFSLYTVLMHRHSEQLLVSLIETTQLPVYHIDFPAVAVCPWNHFNWQRAPSAFIRFLPRHPNAELRETFRQLLASMDIMNFSNFNRIRILTKRNLTGISYLKMTDLMNFMTYRCDELFVADSCVFDETPYDCCKLFVREQTVKGQCLVFNSMISENSRKKHLINQFYPHKLSTAGEDSGLKFTINASYSFMNNIDALTPFGMNLMIKEPRQWSNEMMYHLYPDTENFVAVHPLVTETSPNTYEMSPKKRRCYFDDEKNPTFQNTSLTYNRENCLVVCLHLVVWKTCQCSLPAFLPPIDGVPECGINDAQCLGNNSDIFTYVKMGDQEKYINDSRQGHFCDCPDNCNSRLYEMSLNVRKLDYPKNSTDQLIKAQVYYGQRVMTKIITKLKYTNIDLLANFGGIISLYIGASVMSFIELLFVLGKLMWGFIRDARIKLKEYTK
On to B1, for which the binding result is reported as “binds”.
